Experimental data as given in the supplement of paper PMC12889115.
The list shows a part of the results. Values are raw readings; no control value is given beside them.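 Primary screen: polymyxin B was added at a level permeabilizing Salmonella outer membranes while sparing inner membranes. DMSO wells, both with and without polymyxin B, established maximum growth. Plate-to-plate variation meant each plate was ranked on its own, and the lowest-OD600 compounds were selected as hits.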

System: Salmonella enterica serovar Typhimurium SL1344
Assay: bacterial growth OD600 after 18 h with compound and polymyxin B; higher = more bacterial growth (less inhibition)
Settings: 50 µM, Mueller-Hinton broth

Compound | bacterial growth OD600 (polymyxin B 0.75 µg/mL) | bacterial growth OD600 (polymyxin B 1 µg/mL)
COc1ccccc1CC(=O)Nc1cnn(CC(=O)N(C)CC2(c3ccccc3)CC2(C)C)c1 (stereo not given) | 0.697 | –
COCCN1CCCC2(CCN(C(=O)Nc3cccc(F)c3)C2)C1=O (stereo not given) | 0.763 | –
CC(=O)N1CCCN(C(=O)CC(c2cccc(O)c2)c2cccc(Cl)c2)CC1 (stereo not given) | – | 0.792
Cc1ccc2c(c1)CN(CC(=O)NCC1(c3ccccc3)CCOCC1)CC(c1ccsc1)O2 (stereo not given) | 0.007 | –
CCOC(=O)c1csc(CCNC(=O)Cn2cc(NC(=O)CCC(=O)c3ccccc3)cn2)n1 | 0.812 | –
COc1ccc(CC2=NOC(CNC(=O)c3csc(C(C)C)n3)C2)cc1 (stereo not given) | 0.747 | –
COc1ccc(C2c3[nH]c4ccccc4c3CCN2C(=O)Cc2nonc2C)c(F)c1 (stereo not given) | 0.582 | –
CCn1c(-c2ccccc2F)nc2cc(NC(C)=O)cc(C(=O)NCC(C)Oc3cccnc3)c21 (stereo not given) | 0.921 | –
O=C(c1coc(COc2cccc(F)c2F)n1)N1CCN(CC2CC2)CC1 | – | 0.863
COc1cc2c(cc1OC)CN(C1CCCN(Cc3ccc(C#CCCO)cc3)C1)CC2 (stereo not given) | – | 0.96
C=CCNC(=O)CCC1(Cc2ccc(OC)cc2F)CCC(=O)N1 (stereo not given) | 0.886 | –
COC(=O)c1ccc(-c2noc(CN3CCC(C(O)c4cccs4)CC3)n2)cc1 (stereo not given) | – | 0.736
CC#CC(=O)N1CCC(n2nccc2NC(=O)C(C)(C)C)CC1 | 0.838 | –
CCN1CCN(C(=O)c2ccc(N3CCC(N(C)Cc4nc5cc(C)c(C)cc5[nH]4)CC3)cc2)CC1 | 0.83 | –
CCOC(=O)N1CCC(NCc2c(C(=O)N3CCCC3)nc3sccn23)CC1 | – | 1.21
O=C(NC1CCCC1)c1ccc(N2CCC(NCCCn3ncc4ccccc43)CC2)cc1 | 0.779 | –
O=C(c1ccc(F)cc1Cl)N1CCCC(N2CCN(c3ccc(F)cc3)CC2)C1 (stereo not given) | – | 1.04
CC(C)c1csc(CN2CCCC(CNC(=O)c3n[nH]c4ccccc34)C2)n1 (stereo not given) | – | 0.871
Cc1cccc(CN2CCC(C(=O)Nc3cccc(-c4nnc(C)s4)c3)CC2)n1 | 0.821 | –
O=C(C1CC1)N1CCC(Oc2cccc(C(=O)N3CCCCO3)c2)CC1 | – | 1.25

As a short view, some entries already given.
Compound | bacterial growth OD600 (polymyxin B 0.75 µg/mL) | bacterial growth OD600 (polymyxin B 1 µg/mL)
CC#CC(=O)N1CCC(n2nccc2NC(=O)C(C)(C)C)CC1 | 0.838 | –
CCN1CCN(C(=O)c2ccc(N3CCC(N(C)Cc4nc5cc(C)c(C)cc5[nH]4)CC3)cc2)CC1 | 0.83 | –
